This experiment is described as follows: qHTS Assay for Modulators of Lamin A Splicing. To be noted: HeLa LMNA splicing GFP/RFP minigene ratio, 48 h. The text has this: NCGC Assay Overview: Hutchinson-Gilford Progeria Syndrome (HGPS) is a pediatric premature aging disease caused by a spontaneous mutation in the lamin A/C (LMNA) gene. The mutation activates a cryptic splice site in the LMNA pre-mRNA which results in production of a pre-lamin A protein that cannot be processed properly. The mutant protein accumulates in the nucleus and negatively affects numerous cellular functions. Correction of the splicing defect in HGPS patient cells using a targeted oligonucleotide (exo11) leads to reversal of the cellular disease phenotypes. To identify small molecule modulators of aberrant LMNA splicing, a homogenous assay was constructed in HeLa cells that used a GFP containing minigene to report on correction of aberrant splicing in lamin A and a RFP (DsRed2) to report on cell viability, uniformity and nonspecific effects on the assay signal. This assay was adapted to laser-scanning microplate cytometry (Acumen, TTP Labtech) where miniaturization of the assay to a 1,536-well plate format was possible. References: Bowen, W. P.; Wylie, P. G. Application of Laser-Scanning Fluorescence Microplate Cytometry in High Content Screening. Assay Drug Dev Technol 2006;4:209-221. Scaffidi P, Misteli T. Reversal of the cellular phenotype in the premature aging disease Hutchinson-Gilford progeria syndrome. Nat.
NCGC Assay Protocol Summary: Reagents/Controls: Stable clones expressing DsRed2 and lamin A-EGFP were generated by Cell and Molecular Technologies in S3 HeLa cells. HeLa cells were prepared for the assay when they were 70-90% confluent. The cells were counted and resuspended in Opti-MEM I (no phenol red; Gibco), 2% FBS, 1% penicillin/ streptomycin (Gibco) at concentration of 120 cells/uL concentration. The suspension was passed through a Falcon basket filter with pore size 40um (Beckton Dickson). Control titrations: column […] 1536-well plate contained a sixteen point titration (1:2 dilutions) in duplicate of ancitabine (Sigma: A8598) beginning at 40 uM final concentration. Column 2 contained a sixteen point titration (1:2 dilutions) of cycloheximide beginning at 1.4 mM final concentration. Column 3 contained ancitabine at 40 uM and column 4 contained was the vehicle control (0.5% DMSO final concentration). Assay Steps: 5 uL of HeLa cells were plated in Aurora LoBase black clear bottom (cyclic-olefin polymer) 1536-well plates at a final density of 600 cells/well. Controls and library compounds were added with a 1536-well pin array using the Kalypsys pin-tool. The plates were then incubated for 48 hrs in a cell-culture incubator (37 °C; 5% CO2, 98% humidity). Following incubation the plates were read on the Acumen Explorer using the 488 nm laser. Data was collected on objects between 10 and 100 um in size. Cell objects were defined by a 15 um width x 10 um depth filter. The ratio of the total object intensity in PMT1 (500-530 nm emission; GFP) over PMT3 (575-640 nm emission; RFP) was calculated for analysis. Keywords: NIH Roadmap, MLSCN, MLI, MLSMR, qHTS, NCGC, lamin A, Progeria, RNA splicing.
(In general: In qHTS, concentration-response curves come from the screen itself.)

[1] abbreviates: measured here: RFP viability control channel.
Setting [2] is: measured here: GFP splicing reporter channel.

SMILES strings stand for the structures. Where “and” joins values, the source holds several entries; their conditions need not be identical. Identical values can stand only once. The list shows a part of the results. The main result of the screen is listed elsewhere. These columns were measured beside it and carry no call. Compounds called inactive in the main read-out are mostly missing here. Potencies come from curve fits of mixed quality, noted in brackets.

We go through 50 compounds from PubChem BioAssay AID1487 (National Center for Advancing Translational Sciences (NCATS), 2009).

Take `O=C1NC(=O)C(=Cc2ccc(OCCOc3ccc([N+](=O)[O-])cc3)cc2)C(=O)N1`: the AC50 under setting [1] was 20 µM [falling, single point].

On to `Cc1nonc1OCCNCCNc1ccc([N+](=O)[O-])c2cccnc12`, for which the AC50 runs as follows: under setting [2], 0.355 µM [rising, full curve]; under setting [1], 0.501 µM [rising, full curve, poor fit].

Consider `CCCN1CCO[C@@H]2c3cc(O)ccc3OC[C@H]21`, for which the AC50 under setting [1] is 6.31 µM [falling, single point].

`CC1CCN(c2nc(NCc3ccco3)nc(N)c2[N+](=O)[O-])CC1`: the AC50 is 15.8 µM [rising, partial curve] under setting [2] and 22.4 µM [rising, partial curve] under setting [1].

Consider `O=C(Nc1ccc(F)cc1F)c1cccn(Cc2ccccc2)c1=O`, for which, under setting [2], the AC50 is 0.01 µM [rising, full curve, poor fit].

For the compound `c1ccc2c3c([nH]c2c1)CNCC3`, under setting [2], the AC50 is 22.4 µM [rising, single point].

Regarding `O=c1[nH]c(=O)n(-c2ccccc2)c(O)c1/C=C/C=Nc1ccccc1`, the AC50 under setting [2] was 35.5 µM [falling, single point].

Regarding `Cc1cc(OC(=O)c2cccs2)c2c3c(c(=O)oc2c1)CCCC3`, under setting [1], the AC50 was 12.6 µM [rising, partial curve].

For `CCCCCCCCCCCCCCCC[n+]1ccccc1`, the AC50 is 0.000891 µM [falling, full curve, poor fit] under setting [2] and 5.62 µM [falling, partial curve, poor fit] under setting [1].

`CN(C)[C@@H]1C(=O)C(C(N)=O)=C(O)[C@]2(O)C(=O)C3=C(O)c4c(O)cccc4[C@@](C)(O)[C@H]3[C@H](O)[C@@H]12`: the AC50 under setting [1] is 0.0794 µM [falling, full curve, poor fit].

As for `O=C1/C(=C/c2cccnc2)SC(=NCc2ccccc2)N1Cc1ccccc1`, under setting [1], the AC50 is 10 µM [rising, partial curve].

On to `Cc1ccc(CN2CCN(Cc3ccccc3)CC2)cc1`, for which the AC50 under setting [1] was 0.00355 µM [falling, full curve, poor fit].

Regarding `C=C(C)C1Cc2c(ccc3c2OC2COc4cc(OC)c(OC)cc4C2C3=O)O1` (stereo unspecified), the AC50 runs as follows: under setting [2], 1.12 µM [falling, full curve]; under setting [1], 2.82 µM [falling, full curve, poor fit].

As for `COc1ccc(CCN)cc1O`, the AC50 is, setting by setting: under setting [2], 5.62 µM [falling, partial curve, poor fit]; under setting [1], 5.62 µM [falling, single point].

On to `COC(=O)c1cc2c(cn1)[nH]c1ccccc12`, for which the AC50 was 22.4 µM [falling, partial curve, poor fit] under setting [2] and 0.001 µM [falling, full curve, poor fit] under setting [1].

For `C[C@@H]1O[C@@H](O[C@H]2C[C@@H](O)[C@]3(CO)[C@H]4[C@H](O)C[C@]5(C)[C@@H]([C@@H]6COC(=O)C6)CC[C@]5(O)[C@@H]4CC[C@]3(O)C2)[C@H](O)[C@H](O)[C@H]1O`, the AC50 by setting is: under setting [2], 2 µM [falling, full curve]; under setting [1], 1 µM [rising, full curve].

As for `CC(CO)NC(=O)C1C=C2c3cccc4[nH]cc(c34)CC2N(C)C1` (stereo unspecified), the AC50 is 0.316 µM [rising, full curve] under setting [2] and 0.398 µM [rising, full curve] under setting [1].

On to `Clc1ccc(C(c2ccc(Cl)cc2)n2cc[n+](CC(OCc3ccc(Cl)cc3Cl)c3ccc(Cl)cc3Cl)c2)cc1` (stereo unspecified), for which the AC50 by setting is: under setting [2], 17.8 µM [falling, partial curve]; under setting [1], 12.6 µM [falling, partial curve].

As to `N[C@@H](Cc1c[nH]c2ccccc12)c1nnc(SCc2ccc(Cl)cc2)o1`, the AC50 under setting [2] was 10 µM [rising, partial curve, poor fit] and the AC50 under setting [1] is 2 µM [rising, partial curve, poor fit].

Turning to `CCn1c(O)c(C=NCc2cccs2)c(=O)n(CC)c1=S`, the AC50 under setting [1] is 31.6 µM [rising, single point].

As for `Nc1c(Br)cc(Br)cc1CNC1CCC(O)CC1` (stereo unspecified), the AC50 is, setting by setting: under setting [2], 2.51 nM [falling, partial curve, poor fit] and 794 nM [falling, partial curve, poor fit]; under setting [1], 31.6 µM [falling, single point].

`O=C(Cn1ncc2c3ccccc3n(Cc3ccccc3)c2c1=O)N1CCC2(CC1)OCCO2`: the AC50 runs as follows: under setting [2], 12.6 µM [rising, partial curve]; under setting [1], 17.8 µM [rising, single point].

Consider `COCCNC(=O)c1c(NC(=O)c2ccc(Br)o2)n(Cc2ccccc2)c2nc3ccccc3nc12`, for which the AC50 under setting [2] was 3.16 µM [falling, partial curve, poor fit].

As for `CC(=NCCO)c1c(O)n(C2CCCCC2)c(=O)[nH]c1=O`, under setting [1], the AC50 is 0.158 µM [rising, partial curve].

Regarding `CN1CCC(O)(c2ccc(Cl)cc2)C(C(=O)c2ccc(Cl)cc2)C1` (stereo unspecified), the AC50 runs as follows: under setting [2], 10 µM [falling, partial curve, poor fit]; under setting [1], 35.5 µM [falling, single point].

For the compound `N#C/C(=C\c1ccc(O)c(O)c1)C(=O)NCCCNC(=O)/C(C#N)=C/c1ccc(O)c(O)c1`, under setting [1], the AC50 is 3.16 µM [rising, full curve, poor fit].

On to `COC(=O)C1CN(C#N)N(c2ccc(Cl)cc2)C12c1ccccc1-c1ccccc12` (stereo unspecified), for which the AC50 under setting [2] was 0.501 µM [falling, partial curve, poor fit] and the AC50 under setting [1] is 7.08 µM [falling, partial curve].

On to `CN(C)C(=O)Oc1ccc(OCc2n(C)c3ccccc3[n+]2C)cc1`, for which the AC50 by setting is: under setting [2], 17.8 µM [rising, partial curve]; under setting [1], 11.2 µM [rising, partial curve].

Consider `c1ccc2c(CNC3CCCCCC3)c[nH]c2c1`, for which, under setting [1], the AC50 is 11.2 µM [rising, partial curve].

Consider `CC(=O)OC1C([N+]2(C)CCCCC2)C[C@H]2C3CC[C@H]4C[C@H](OC(C)=O)C([N+]5(C)CCCCC5)CC4(C)C3CCC12C` (stereo partly specified), for which the AC50 under setting [2] is 0.0141 µM [falling, full curve, poor fit].

As for `O=C(Nc1ccc(F)c([N+](=O)[O-])c1)c1cccn(Cc2ccccc2)c1=O`, the AC50 reads like this: under setting [2], 0.158 µM [falling, partial curve]; under setting [1], 1.12 µM [falling, full curve].

For `O=C(CN1CC=C(c2ccccc2)CC1)Nc1cc(Cl)ccc1Cl`, the AC50 under setting [1] is 17.8 µM [rising, partial curve, poor fit].

Consider `COc1ccc(NC2=NCC(C)S2)cc1` (stereo unspecified), for which the AC50 is 5.01 µM [rising, partial curve, poor fit] under setting [2] and 3.55 µM [rising, single point] under setting [1].

On to `CC(C)(C)c1cc(O)ccc1O`, for which the AC50 was 35.5 µM [falling, single point] under setting [2] and 1.26 µM [falling, full curve, poor fit] under setting [1].

As for `CC(O)C1CCC2C3CCC4CC(O)CCC4(C)C3CCC12C` (stereo unspecified), the AC50 by setting is: under setting [2], 7.94 µM [rising, partial curve]; under setting [1], 4.47 µM [rising, full curve].

Turning to `Brc1c(NC2=NCCN2)ccc2nccnc12`, the AC50 was 1.58 µM [falling, partial curve] under setting [2]; 2.51 µM [falling, partial curve, poor fit] and 12.6 µM [rising, partial curve] under setting [1].

As to `O=C1OC(=O)C2C1[C@@H]1CC[C@H]2O1` (stereo partly specified), the AC50 runs as follows: under setting [2], 35.5 µM [rising, partial curve, poor fit]; under setting [1], 35.5 µM [rising, partial curve].

Regarding `Cc1cccc2c3c(ccc12)C1=C(C(=O)C3=O)C(C)CO1` (stereo unspecified), the AC50 under setting [2] is 17.8 µM [falling, single point] and the concentration at half-maximal activity (AC50) under setting [1] was 22.4 µM [falling, single point].

For the compound `CCC1/C=C/C=CCC(C)C(O)[C@@](C)(O)C(=O)C(C)C(O)C(C)C(=O)C(C)C(O)C(C)C=CC(=O)O[C@H]2C(C)C(CC1)O[C@]1(CCC(C)C(CC(C)O)O1)C2C` (stereo partly specified), under setting [2], the AC50 is 0.891 µM [rising, partial curve, poor fit].

For the compound `O=c1c2ccccc2nc(/C=C/c2ccc3c(c2)OCO3)n1-c1cccc(O)c1`, the AC50 is 14.1 µM [rising, single point] under setting [2] and 20 µM [rising, partial curve] under setting [1].

For the compound `NC(=O)CS(=O)C(c1ccccc1)c1ccccc1` (stereo unspecified), the AC50 under setting [1] is 0.00178 µM [rising, full curve, poor fit].

Consider `CC(=NCc1ccc2c(c1)OCO2)c1c(O)n(C)c(=O)n(C)c1=O`, for which the AC50 reads like this: under setting [2], 20 µM [rising, single point]; under setting [1], 20 µM [rising, partial curve].

As to `O=P1(N(CCCl)CCCl)NCCCO1` (stereo unspecified), the AC50 under setting [2] was 0.794 µM [falling, full curve].

On to `CC(C)(C)C(=O)OC[N+](C)(C)CCOC(=O)C(O)(c1ccccc1)C1CCCC1` (stereo unspecified), for which the concentration at half-maximal activity (AC50) is 2.24 µM [rising, partial curve, poor fit] under setting [2] and 35.5 µM [rising, partial curve, poor fit] under setting [1].

For the compound `c1ccc2c(c1)sc1ccccc12`, under setting [2], the AC50 is 0.0794 µM [falling, full curve, poor fit].

On to `CCc1nc2ccccc2c(=O)n1-c1cccc(OC)c1`, for which, under setting [2], the AC50 is 8.91 µM [rising, partial curve, poor fit].

Regarding `CN1[C@@H]2CC[C@H]1CC(O)C2` (stereo partly specified), under setting [1], the AC50 is 3.55 µM [falling, partial curve, poor fit].

Turning to `Cn1c(O)c(C=NCCc2c[nH]c3ccccc23)c(=O)n(C)c1=O`, under setting [1], the AC50 is 11.2 µM [falling, single point].

For `CC(=O)OCC1=C(C(=O)[O-])N2C(=O)[C@@H](NC(=O)CCC[C@@H](N)C(=O)[O-])[C@H]2SC1.[Zn+2]`, under setting [1], the AC50 is 0.00398 µM [falling, full curve, poor fit].

With `O=C(O)CNC(=O)c1ccccc1I`, the AC50 is 10 µM [falling, partial curve, poor fit] under setting [2] and 8.91 µM [falling, partial curve] under setting [1].

One may read the AC50 as the midpoint of the concentration-response curve, whichever way the signal moves.
